The nature of the data set: HPLC analysis of endogenous retinoids in parts of the adult mouse brain. As to conditions: reverse phase HPLC.

Structures are written as SMILES.

1 compound from patent publication US20040110707A1, “Method of treating neurological diseases” (priority 2001, published 2004) can be followed below.

`CC1=C(/C=C/C(C)=C/C=C/C(C)=C/CO)C(C)(C)CCC1` [all-trans-retinol, all-trans retinol] gave a level of all-trans-retinol (brainstem) of 13.5 ± 4.1 pg/mg, a level of all-trans-retinol (cerebellum) of 38.9 ± 25.5 pg/mg and a level of all-trans-retinol (cerebrum) of 9.2±2.3 pg/mg tissue.
